Reference: PubChem BioAssay AID720505 (Drosophila RNAi Screening Center, 2013)

Aim: 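Fly regulators or components of the CRAC channel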 (primary screen)
Cell system: Drosophila S2R+ cells
Reagents: long dsRNA against Drosophila genes
Treatment: thapsigargin (2 µM) in calcium-free buffer to empty internal stores, then 2 mM calcium added back
Detection: 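Stores emptied by 2 µM thapsigargin without calcium, then 2 mM calcium re-added; fluo-4 fluorescence followed by FLIPR in 384-well plates, per-well averaged endpoint, raw; two screen passes, some wells retested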
Reading the numbers: calcium signal and retest calcium signal: higher = more calcium entry after store depletion
Call rule: 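Knock-downs counted as hits when calcium entry dropped relative to STIM1 positive and Rho1 negative controls present on each plate; roughly 1500 genes called, with reductions of differing size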
Meaning of the calls: active = called as lowering calcium entry; inactive = not called
The deposit covers about 20,000 reagents; shown is an unselected part of those with a known target gene and a result. Over the whole deposit, about 2,100 (10%) are marked active. 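Raw plate signals without normalisation; calls rest on control-based scores that were not deposited; replicate 2 separates called from uncalled poorly.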 Names joined by + are all predicted targets of the reagent. Not stated in the record: the amount of reagent, the time to read-out.

gene knocked down | DRSC id | calcium signal, replicate 1 | calcium signal, replicate 2 | retest calcium signal, replicate 1 | retest calcium signal, replicate 2 | call
CG17190 (GeneID 42386) | DRSC15184 | 101 | 75 | – | – | inactive
CG17574 (GeneID 36415) | DRSC06681 | 136 | 207 | 141 | 124 | inactive
kek2 (GeneID 34582) | DRSC03552 | 186 | 121 | – | – | inactive
Pkg21D (GeneID 33253) | DRSC00772 | 164 | 224 | – | – | inactive
Patr-1 (GeneID 42058) | DRSC14159 | 157 | 293 | – | – | inactive
CG5500 (GeneID 43233) | DRSC15820 | 193 | 142 | – | – | inactive
CG11211 (GeneID 35545) | DRSC04851 | 170 | 215 | – | – | inactive
ppk16 (GeneID 3885612) | DRSC02736 | 193 | 161 | – | – | inactive
CG14855 (GeneID 41789) | DRSC14979 | 121 | 163 | – | – | inactive
Hou (GeneID 32852) | DRSC20001 | 180 | 165 | – | – | inactive
Hou (GeneID 32852) | DRSC22347 | 87.8 | 235 | – | – | inactive
bif (GeneID 32119) | DRSC20313 | 116 | 72.9 | – | – | inactive
CG5131 (GeneID 35057) | DRSC02817 | 116 | 94.4 | – | – | inactive
Jon99Fii (GeneID 43621) | DRSC15430 | 145 | 140 | – | – | inactive
Coa8 (GeneID 31148) | DRSC17959 | 93.4 | 162 | – | – | inactive
CG15745 (retired record) (GeneID 32283) | DRSC19711 | 142 | 94.9 | – | – | inactive
Alg7 (GeneID 34711) | DRSC02833 | 98.4 | 108 | – | – | inactive
Alg7 (GeneID 34711) | DRSC02834 | 103 | 83.1 | – | – | inactive
Ir8a (GeneID 31867) | DRSC17817 | 86.6 | 123 | – | – | inactive
Ir8a (GeneID 31867) | DRSC17869 | 90.5 | 109 | – | – | inactive
CG9992 (GeneID 32605) | DRSC20226 | 165 | 151 | – | – | inactive
CG9992 (GeneID 32605) | DRSC21643 | 189 | 93.3 | – | – | inactive
Vps16A (GeneID 41107) | DRSC16422 | 120 | 98.8 | – | – | inactive
CG7987 (GeneID 41768) | DRSC16357 | 117 | 123 | – | – | inactive
Sym (GeneID 40709) | DRSC12301 | 95.4 | 88 | – | – | inactive
CG14246 (GeneID 3772140) | DRSC14741 | 128 | 95 | 5556 | 135 | inactive
CG2616 (GeneID 40915) | DRSC15440 | 123 | 144 | – | – | inactive
CG7191 (GeneID 34058) | DRSC03022 | 80.5 | 86.8 | – | – | active
CG12024 (GeneID 38243) | DRSC08229 | 61.2 | 185 | – | – | active
CG17364 (GeneID 39543) | DRSC10269 | 123 | 106 | – | – | inactive
CG17364 (GeneID 39543) | DRSC10270 | 116 | 94.6 | 7138 | 139 | inactive
CG17364 (GeneID 39543) | DRSC22689 | 76.3 | 134 | – | – | inactive
CG18132 (GeneID 33333) | DRSC00518 | 184 | 142 | – | – | inactive
CG32313 (GeneID 317973) | DRSC21450 | 141 | 72.4 | – | – | inactive
CG6052 (GeneID 39971) | DRSC10574 | 74.9 | 126 | – | – | inactive
mkg-p (GeneID 38955) | DRSC10777 | 109 | 160 | – | – | inactive
CG18549 (GeneID 41538) | DRSC15347 | 168 | 98.9 | – | – | inactive
Dgkepsilon (GeneID 36408) | DRSC07399 | 152 | 161 | – | – | inactive
l(1)10Bb (GeneID 32069) | DRSC20346 | 75.8 | 89.6 | – | – | active
can (GeneID 45432) | DRSC10664 | 137 | 110 | – | – | inactive
CG15514 (GeneID 43531) | DRSC15053 | 123 | 104 | – | – | inactive
fd59A (GeneID 37631) | DRSC04685 | 70.3 | 178 | – | – | active
CG15169 (GeneID 35161) | DRSC02470 | 149 | 79.4 | – | – | inactive
CG14126 (retired record) (GeneID 39350) | DRSC10130 | 68.1 | 92.7 | – | – | active
CG17931 + CG42446 | DRSC15293 | 144 | 144 | – | – | inactive
usp (GeneID 31165) | DRSC18847 | 98.5 | 122 | – | – | inactive
mRpL43 (GeneID 37750) | DRSC04508 | 131 | 166 | 124 | 129 | inactive
mRpL43 (GeneID 37750) | DRSC22571 | 84.2 | 154 | – | – | inactive
CG16935 (GeneID 36540) | DRSC06638 | 78.8 | 179 | – | – | inactive
CG33704 (GeneID 3772359) | DRSC03838 | 89.1 | 7964 | – | – | inactive
qin (GeneID 42236) | DRSC14782 | 243 | 166 | – | – | inactive
qin (GeneID 42236) | DRSC14785 | 155 | 111 | – | – | inactive
CG7017 (GeneID 40213) | DRSC10762 | 68.3 | 101 | – | – | active
CG10222 (GeneID 39504) | DRSC09714 | 88.2 | 76.5 | – | – | inactive
CG42319 (GeneID 36473) | DRSC06645 | 137 | 132 | – | – | inactive
CG42319 (GeneID 36473) | DRSC06646 | 142 | 159 | – | – | inactive
CG42319 (GeneID 36473) | DRSC22426 | 124 | 156 | – | – | inactive
nis (GeneID 33337) | DRSC00290 | 137 | 202 | – | – | inactive
Npc2h (GeneID 43649) | DRSC14297 | 176 | 136 | – | – | inactive
CG5715 (GeneID 42895) | DRSC15860 | 216 | 145 | – | – | inactive
CG40341 (retired record) (GeneID 3885621) | DRSC01767 | 79.3 | 5631 | – | – | inactive
CG40341 (retired record) (GeneID 3885621) | DRSC03750 | 84 | 9898 | – | – | inactive
Su(Tpl) (GeneID 40171) | DRSC10954 | 92 | 83.8 | – | – | inactive
Fs (GeneID 2768836) | DRSC06258 | 96.7 | 109 | – | – | inactive
Fs (GeneID 2768836) | DRSC06259 | 122 | 176 | – | – | inactive
Efr (GeneID 31553) | DRSC18322 | 70.8 | 235 | – | – | active
Polr3H (GeneID 39310) | DRSC10817 | 101 | 88.8 | – | – | inactive
Cyp6v1 (GeneID 33056) | DRSC20565 | 57.8 | 141 | – | – | active
CG43088 (GeneID 12797977) | DRSC19055 | 82.3 | 104 | – | – | inactive
CG43088 (GeneID 12797977) | DRSC21407 | 191 | 104 | – | – | inactive
CG30039 (GeneID 246411) | DRSC21794 | 114 | 87.9 | – | – | inactive
mRpL44 (GeneID 40656) | DRSC12306 | 91.3 | 132 | – | – | inactive
Culd (GeneID 38946) | DRSC10262 | 98.2 | 134 | – | – | inactive
CG42694 (GeneID 10178792) | DRSC03955 | 92.6 | 7738 | – | – | inactive
BomBc3 (GeneID 50055) | DRSC15873 | 154 | 151 | – | – | inactive
CG4577 (GeneID 33291) | DRSC00658 | 189 | 143 | – | – | inactive
RASSF8 (GeneID 43096) | DRSC15707 | 89.2 | 121 | – | – | inactive
CG8460 (GeneID 34115) | DRSC03090 | 125 | 188 | – | – | inactive
CR31292 (GeneID 10178952) | DRSC13120 | – | – | – | – | inactive
CG18787 + CG18789 | DRSC02698 | 81.7 | 114 | – | – | inactive
CG12307 (GeneID 34584) | DRSC02159 | 206 | 133 | – | – | inactive
CG8679 (GeneID 35395) | DRSC03109 | 236 | 88.8 | – | – | inactive
CG15278 (GeneID 34865) | DRSC02481 | 63 | 99 | – | – | active
Pp4-19C (GeneID 45031) | DRSC20559 | 70.2 | 184 | – | – | active
Pp4-19C (GeneID 45031) | DRSC21251 | 61.8 | 150 | – | – | active
Pp4-19C (GeneID 45031) | DRSC23319 | 77.7 | 130 | – | – | inactive
CG6951 (GeneID 40222) | DRSC10755 | 64 | 112 | – | – | active
CG13297 (GeneID 38711) | DRSC09971 | 111 | 89.2 | – | – | inactive
Fmo-2 (GeneID 35561) | DRSC04983 | 140 | 91.8 | – | – | inactive
Tfb1 (GeneID 36598) | DRSC07082 | 151 | 148 | – | – | inactive
CG32579 (GeneID 318096) | DRSC19872 | 95 | 141 | – | – | inactive
Glg1 (GeneID 40382) | DRSC11815 | 103 | 82.8 | – | – | inactive
Glg1 (GeneID 40382) | DRSC11816 | 78.2 | 142 | – | – | inactive
Glg1 (GeneID 40382) | DRSC11817 | 88 | 117 | – | – | inactive
CG8509 (GeneID 32535) | DRSC20109 | 181 | 119 | – | – | inactive
BomT2 (GeneID 50208) | DRSC06631 | 240 | 132 | – | – | inactive
ATPsynO (GeneID 41845) | DRSC16780 | 91.1 | 83.3 | – | – | inactive
Srr (GeneID 41117) | DRSC16382 | 102 | 79.8 | – | – | inactive
Acp1 (GeneID 34052) | DRSC01854 | 78.5 | 94 | – | – | active
CG33966 (GeneID 3885642) | DRSC08256 | 78.8 | 101 | – | – | inactive
CG10970 (GeneID 31830) | DRSC17772 | 124 | 157 | – | – | inactive
CG14563 (GeneID 40435) | DRSC11724 | 124 | 176 | – | – | inactive
RNaseP:RNA (GeneID 3772418) | DRSC22967 | 95.8 | 119 | – | – | inactive
Arfip (GeneID 41353) | DRSC15179 | 74.7 | 138 | – | – | active
Cpr31A (GeneID 2768918) | DRSC02779 | 90.8 | 102 | – | – | inactive
ZC3H3 (GeneID 38968) | DRSC10696 | 61.5 | 28.9 | – | – | active

In a second layout: results already given
gene knocked down,DRSC id,"calcium signal, replicate 1","calcium signal, replicate 2","retest calcium signal, replicate 1","retest calcium signal, replicate 2",call
CG32579 (GeneID 318096),DRSC19872,95,141,,,inactive
Glg1 (GeneID 40382),DRSC11815,103,82.8,,,inactive
Glg1 (GeneID 40382),DRSC11816,78.2,142,,,inactive
Glg1 (GeneID 40382),DRSC11817,88,117,,,inactive
CG8509 (GeneID 32535),DRSC20109,181,119,,,inactive
BomT2 (GeneID 50208),DRSC06631,240,132,,,inactive
ATPsynO (GeneID 41845),DRSC16780,91.1,83.3,,,inactive
Srr (GeneID 41117),DRSC16382,102,79.8,,,inactive
Acp1 (GeneID 34052),DRSC01854,78.5,94,,,active
CG33966 (GeneID 3885642),DRSC08256,78.8,101,,,inactive
CG10970 (GeneID 31830),DRSC17772,124,157,,,inactive
CG14563 (GeneID 40435),DRSC11724,124,176,,,inactive
RNaseP:RNA (GeneID 3772418),DRSC22967,95.8,119,,,inactive
